These are yes or no findings as the source states them, for the method shown. Binding seen in cells or lysates may run through a third protein. Some binding calls cover weakened binding; strength is not graded here.

Test [1] addresses His-MBP-cyclin B1 (amino acids 152-433, C167S, C238S, C350S) (human) (UniProt P14635). Put plainly: pull-down.
For test [2], the target named is His-MBP-CDK5 (human) (UniProt Q00535). Put plainly: pull-down.
Test [3] concerns the target Flag-HA-CDK5-G152W (human) (UniProt Q00535). Description: co-IP.
The target in test [4] is Flag-HA-CDK5-G152F (human) (UniProt Q00535). Description: co-IP.
The target of test [5] is Flag-HA-CDK5 WT (human) (UniProt Q00535). Description: co-IP.

As for “His-CDK5 (from UniProt Q00535 1-292) (enzyme)”, the binding result in test [1] is “binds”.
As to “His-cyclin B1 (amino acids 152-433, C167S, C238S, C350S) (from UniProt P14635 152-433) (domain or fragment)”, the binding result in test [2] is listed as “binds”.
Take “cyclin B1 (endogenous, RPE-1) (from UniProt P14635 1-433)”: the binding result in test [3], in test [4] and in test [5] was “binds” throughout.
